Values of other authors in patent publication US20170157075A1, “Edible Compositions and Methods for Promoting Alpha Brain Waves” (priority 2015, published 2017).
At least one structure is not confirmed: it was looked up by name or label, or the drawing left a doubt.

System: alpha brain wave activity
Conditions: when consumed

CCNC(=O)CC[C@H](N)C(=O)O [theanine, gamma-glutamylethylamide]
promotion of alpha brain wave activity: capable of promoting alpha brain wave activity when consumed
